Results on one molecule are retold here after the supplement of paper PMC8728848.

The list shows a part of the results.

What all share (assay): glycan array binding signal (z-score within array); higher = stronger binding
Holding throughout (details): glycan notation: IUPAC condensed, linker removed

Assay [1] addresses Gal(b1-4)GlcNAc(b1-2)Man(a1-6)[Man(a1-3)]Man(b1-4)GlcNAc(b1-4)GlcNAc. The procedure, abridged: (§1)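 Columns mapping to the same glycan were averaged after glycan names were converted to IUPAC-condensed notation. The data come from 3228 arrays in the Consortium for Functional Glycomics database, limited to those with an available protein sequence. Binding is reported as a within-array Z-score averaged across arrays of one protein sequence and across linkers.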

For assay [2], the target named is Gal(b1-4)GlcNAc(b1-2)[Gal(b1-4)GlcNAc(b1-4)]Man(a1-3)[Gal(b1-4)GlcNAc(b1-2)Man(a1-6)]Man(b1-4)GlcNAc(b1-4)GlcNAc. In short, it runs like this: as §1
In assay [3] the target is Gal(b1-4)GlcNAc(b1-2)[Gal(b1-4)GlcNAc(b1-4)]Man(a1-3)[Gal(b1-4)GlcNAc(b1-2)[Gal(b1-4)GlcNAc(b1-6)]Man(a1-6)]Man(b1-4)GlcNAc(b1-4)GlcNAc. In short, it runs like this:
as §1

The target of assay [4] is Gal(b1-4)GlcNAc(b1-2)[Gal(b1-4)GlcNAc(b1-4)]Man(a1-3)[GlcNAc(b1-4)][Gal(b1-4)GlcNAc(b1-2)Man(a1-6)]Man(b1-4)GlcNAc(b1-4)GlcNAc. The procedure, abridged:
as §1

Assay [5] has as its target Gal(b1-4)GlcNAc(b1-2)[Gal(b1-4)GlcNAc(b1-4)]Man(a1-3)[GlcNAc(b1-4)][Gal(b1-4)GlcNAc(b1-2)[Gal(b1-4)GlcNAc(b1-6)]Man(a1-6)]Man(b1-4)GlcNAc(b1-4)GlcNAc. In short, it runs like this:
as §1

Assay [6] concerns the target Gal(b1-4)GlcNAc(b1-2)[Gal(b1-4)GlcNAc(b1-6)]Man(a1-6)[Gal(b1-4)GlcNAc(b1-2)Man(a1-3)]Man(b1-4)GlcNAc(b1-4)GlcNAc. The procedure, abridged: as §1
Assay [7] addresses Gal(b1-4)GlcNAc(b1-2)[Gal(b1-4)GlcNAc(b1-6)]Man(a1-6)[Gal(b1-4)GlcNAc(b1-2)Man(a1-3)]Man(b1-4)GlcNAc(b1-4)[Fuc(a1-6)]GlcNAc. The procedure, abridged: as §1
The target in assay [8] is Gal(b1-4)GlcNAc(b1-2)[Gal(b1-4)GlcNAc(b1-6)]Man(a1-6)[GlcNAc(b1-4)][Gal(b1-4)GlcNAc(b1-2)Man(a1-3)]Man(b1-4)GlcNAc(b1-4)GlcNAc. The procedure, abridged: as §1
The target in assay [9] is Gal(b1-4)GlcNAc(b1-2)[Gal(b1-4)GlcNAc(b1-6)]Man(a1-6)[GlcNAc(b1-4)][Gal(b1-4)GlcNAc(b1-2)[Gal(b1-4)GlcNAc(b1-4)]Man(a1-3)]Man(b1-4)GlcNAc(b1-4)[Fuc(a1-6)]GlcNAc. The procedure, abridged:
as §1

The target of assay [10] is Gal(b1-4)GlcNAc(b1-3)Gal(b1-3)GalNAc. In short, it runs like this:
as §1

Assay [11] deals with Gal(b1-4)GlcNAc(b1-3)Gal(b1-3)GlcNAc. The procedure, abridged:
as §1

For assay [12], the target named is Gal(b1-4)GlcNAc(b1-3)Gal(b1-4)Glc. The procedure, abridged: as §1
The target in assay [13] is Gal(b1-4)GlcNAc(b1-3)Gal(b1-4)GlcNAc. The procedure, abridged: as §1
Assay [14] concerns the target Gal(b1-4)GlcNAc(b1-3)Gal(b1-4)GlcNAc(b1-2)Man(a1-3)[Gal(b1-4)GlcNAc(b1-3)Gal(b1-4)GlcNAc(b1-2)Man(a1-6)]Man(b1-4)GlcNAc(b1-4)GlcNAc. In short, it runs like this:
as §1

In assay [15] the target is Gal(b1-4)GlcNAc(b1-3)Gal(b1-4)GlcNAc(b1-2)Man(a1-3)[Gal(b1-4)GlcNAc(b1-3)Gal(b1-4)GlcNAc(b1-2)Man(a1-6)]Man(b1-4)GlcNAc(b1-4)[Fuc(a1-6)]GlcNAc. The procedure, abridged: as §1
Assay [16] has as its target Gal(b1-4)GlcNAc(b1-3)Gal(b1-4)GlcNAc(b1-2)[Gal(b1-4)GlcNAc(b1-3)Gal(b1-4)GlcNAc(b1-6)]Man(a1-6)[Gal(b1-4)GlcNAc(b1-3)Gal(b1-4)GlcNAc(b1-2)Man(a1-3)]Man(b1-4)GlcNAc(b1-4)GlcNAc. The procedure, abridged: as §1
Assay [17] deals with Gal(b1-4)GlcNAc(b1-3)Gal(b1-4)GlcNAc(b1-2)[Gal(b1-4)GlcNAc(b1-3)Gal(b1-4)GlcNAc(b1-6)]Man(a1-6)[Gal(b1-4)GlcNAc(b1-3)Gal(b1-4)GlcNAc(b1-2)Man(a1-3)]Man(b1-4)GlcNAc(b1-4)[Fuc(a1-6)]GlcNAc. The procedure, abridged: as §1
For assay [18], the target named is Gal(b1-4)GlcNAc(b1-3)Gal(b1-4)GlcNAc(b1-3)Gal(b1-4)GlcNAc. In short, it runs like this: as §1

B1: SfaEH (Escherichia coli), Q1RDG5 (protein)
chain: LLCRNNQTGQVFNSGDTSFRVNVSPVVQYDKSISVLDLSQLVSCQNEDSTGQNYDYLKILKGSGFSPALDTKTYGRLDFTSRPTGYARQLPLQFDLQVTEAFYQYGVWKPFPAKLYLYPAPGVFGKVINNGDLLATLYVNKFSTKGQEAGERNFTWRFYATNDVYIQTGTCRVSSNNVKVDLPSYPGGPVTVPLTVRCDQTQSVSYTLSGPVTGSGNTVFANTAASGSGGVGIQLSDNVGPVPAGQPRSLGQVGSSPVSLGLKASYALTGQASPTPGAVQSVINVTFSYN
B1: the “glycan array binding signal (z-score)” value in assay [1] is -0.22; in assay [2] it was 1.8; in assay [3], 0.046; in assay [4] it was 0.346; in [5], 1.56; in assay [6], -0.54. Moreover, the “glycan array binding signal (z-score)” value is -0.781 in [7]; 0.119 in assay [8]; -0.371 in assay [9]; -0.702 in assay [10]; 0.732 in assay [11]; 0.024 in assay [12]. The “glycan array binding signal (z-score)” value in [13] is -0.049; in assay [14], 0.118; in assay [15] it was -0.002; in assay [16], -0.246; in assay [17] it was 0.724; in [18], 0.382.
